Data as given in the supplement of paper PMC12819154, “High-throughput peptide-centric local stability assay extends protein–ligand identification to membrane proteins, tissues and bacteria” (Nature Structural & Molecular Biology, 2025).
This is one part of the list. Small differences around the control level are noise.

Protein sequences, listed by entry. Tags and fused reporters are not part of them. Lines headed by an entry give the natural chain unless they say otherwise; changes in a name come on top.
UniProt Q8BMA3: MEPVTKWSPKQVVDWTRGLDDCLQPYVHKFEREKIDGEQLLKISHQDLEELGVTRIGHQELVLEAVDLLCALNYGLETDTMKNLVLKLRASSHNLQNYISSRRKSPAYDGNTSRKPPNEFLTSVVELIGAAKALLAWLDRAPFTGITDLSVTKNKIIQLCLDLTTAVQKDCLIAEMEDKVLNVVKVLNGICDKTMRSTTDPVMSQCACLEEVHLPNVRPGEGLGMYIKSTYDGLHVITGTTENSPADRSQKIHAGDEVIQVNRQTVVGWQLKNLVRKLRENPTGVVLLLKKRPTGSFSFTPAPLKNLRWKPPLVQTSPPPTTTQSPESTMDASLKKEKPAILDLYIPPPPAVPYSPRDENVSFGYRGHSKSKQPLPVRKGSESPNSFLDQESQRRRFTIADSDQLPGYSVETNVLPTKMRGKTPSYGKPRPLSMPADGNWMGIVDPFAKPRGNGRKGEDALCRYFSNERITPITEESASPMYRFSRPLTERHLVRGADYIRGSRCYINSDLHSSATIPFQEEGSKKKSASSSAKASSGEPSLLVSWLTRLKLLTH
UniProt Q8BV49: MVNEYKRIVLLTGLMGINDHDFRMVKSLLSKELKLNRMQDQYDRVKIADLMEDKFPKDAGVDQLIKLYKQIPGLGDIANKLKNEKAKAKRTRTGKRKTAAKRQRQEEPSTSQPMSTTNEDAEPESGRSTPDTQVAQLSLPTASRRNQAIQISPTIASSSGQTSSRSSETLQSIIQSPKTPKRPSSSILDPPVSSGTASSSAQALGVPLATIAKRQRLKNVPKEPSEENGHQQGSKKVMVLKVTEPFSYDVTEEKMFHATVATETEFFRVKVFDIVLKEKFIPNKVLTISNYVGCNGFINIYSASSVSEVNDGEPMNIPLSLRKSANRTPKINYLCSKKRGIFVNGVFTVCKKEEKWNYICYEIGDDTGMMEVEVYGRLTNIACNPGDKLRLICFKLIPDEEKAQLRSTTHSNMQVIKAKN
UniProt Q8BTZ5: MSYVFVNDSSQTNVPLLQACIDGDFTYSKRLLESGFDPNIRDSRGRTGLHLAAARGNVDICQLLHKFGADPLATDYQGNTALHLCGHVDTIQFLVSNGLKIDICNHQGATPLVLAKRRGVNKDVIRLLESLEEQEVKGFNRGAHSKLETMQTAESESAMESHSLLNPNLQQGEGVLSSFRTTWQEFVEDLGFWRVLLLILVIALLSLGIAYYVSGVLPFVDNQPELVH
UniProt Q8BRN9: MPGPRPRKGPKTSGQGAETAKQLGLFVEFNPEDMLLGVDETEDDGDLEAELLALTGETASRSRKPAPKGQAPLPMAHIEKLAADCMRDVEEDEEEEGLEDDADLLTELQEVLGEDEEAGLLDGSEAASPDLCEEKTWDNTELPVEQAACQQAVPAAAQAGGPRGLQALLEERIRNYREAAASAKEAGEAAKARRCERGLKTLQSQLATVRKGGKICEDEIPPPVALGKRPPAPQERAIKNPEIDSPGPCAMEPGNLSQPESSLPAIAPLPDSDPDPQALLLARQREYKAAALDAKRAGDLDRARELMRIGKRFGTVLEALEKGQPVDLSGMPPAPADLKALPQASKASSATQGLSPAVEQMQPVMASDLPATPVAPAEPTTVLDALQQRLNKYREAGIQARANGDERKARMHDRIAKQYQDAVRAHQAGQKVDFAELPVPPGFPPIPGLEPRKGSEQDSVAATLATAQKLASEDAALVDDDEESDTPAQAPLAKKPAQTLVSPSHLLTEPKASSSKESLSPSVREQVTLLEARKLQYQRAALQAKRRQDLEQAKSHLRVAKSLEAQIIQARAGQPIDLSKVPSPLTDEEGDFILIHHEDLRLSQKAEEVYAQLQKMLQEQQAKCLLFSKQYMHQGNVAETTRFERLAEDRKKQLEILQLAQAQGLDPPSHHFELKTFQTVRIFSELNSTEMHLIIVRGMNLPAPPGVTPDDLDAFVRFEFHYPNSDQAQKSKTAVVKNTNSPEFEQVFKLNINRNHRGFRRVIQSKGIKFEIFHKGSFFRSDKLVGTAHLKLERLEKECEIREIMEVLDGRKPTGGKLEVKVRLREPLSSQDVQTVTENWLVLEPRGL
UniProt Q8BJ90: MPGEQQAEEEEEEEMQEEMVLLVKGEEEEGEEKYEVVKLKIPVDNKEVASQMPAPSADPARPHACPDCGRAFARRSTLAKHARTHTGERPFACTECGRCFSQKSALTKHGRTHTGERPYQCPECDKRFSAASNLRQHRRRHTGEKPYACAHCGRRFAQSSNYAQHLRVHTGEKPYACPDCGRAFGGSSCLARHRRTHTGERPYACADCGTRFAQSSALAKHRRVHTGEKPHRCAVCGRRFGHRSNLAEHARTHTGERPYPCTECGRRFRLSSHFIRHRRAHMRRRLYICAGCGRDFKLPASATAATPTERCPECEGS
UniProt Q8BMS1: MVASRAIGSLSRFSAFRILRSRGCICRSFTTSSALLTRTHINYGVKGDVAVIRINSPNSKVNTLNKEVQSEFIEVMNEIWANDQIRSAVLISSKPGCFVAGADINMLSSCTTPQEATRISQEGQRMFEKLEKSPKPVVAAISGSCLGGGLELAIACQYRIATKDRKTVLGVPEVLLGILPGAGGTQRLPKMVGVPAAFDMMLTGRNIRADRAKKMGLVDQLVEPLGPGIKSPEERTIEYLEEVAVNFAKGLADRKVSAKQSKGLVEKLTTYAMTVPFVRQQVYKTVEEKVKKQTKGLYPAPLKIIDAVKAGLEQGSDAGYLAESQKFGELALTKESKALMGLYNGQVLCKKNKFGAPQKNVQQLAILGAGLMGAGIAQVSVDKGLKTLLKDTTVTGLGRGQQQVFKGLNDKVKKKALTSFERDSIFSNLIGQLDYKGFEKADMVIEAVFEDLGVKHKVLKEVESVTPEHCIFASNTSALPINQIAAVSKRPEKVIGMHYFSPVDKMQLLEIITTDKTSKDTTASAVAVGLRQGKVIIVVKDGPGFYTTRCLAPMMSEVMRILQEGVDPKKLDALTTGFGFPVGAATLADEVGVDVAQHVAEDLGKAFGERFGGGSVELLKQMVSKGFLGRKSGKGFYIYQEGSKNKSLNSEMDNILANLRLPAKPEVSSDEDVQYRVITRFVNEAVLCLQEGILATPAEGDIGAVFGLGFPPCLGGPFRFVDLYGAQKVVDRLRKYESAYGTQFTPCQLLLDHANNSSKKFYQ
UniProt Q8BIQ5: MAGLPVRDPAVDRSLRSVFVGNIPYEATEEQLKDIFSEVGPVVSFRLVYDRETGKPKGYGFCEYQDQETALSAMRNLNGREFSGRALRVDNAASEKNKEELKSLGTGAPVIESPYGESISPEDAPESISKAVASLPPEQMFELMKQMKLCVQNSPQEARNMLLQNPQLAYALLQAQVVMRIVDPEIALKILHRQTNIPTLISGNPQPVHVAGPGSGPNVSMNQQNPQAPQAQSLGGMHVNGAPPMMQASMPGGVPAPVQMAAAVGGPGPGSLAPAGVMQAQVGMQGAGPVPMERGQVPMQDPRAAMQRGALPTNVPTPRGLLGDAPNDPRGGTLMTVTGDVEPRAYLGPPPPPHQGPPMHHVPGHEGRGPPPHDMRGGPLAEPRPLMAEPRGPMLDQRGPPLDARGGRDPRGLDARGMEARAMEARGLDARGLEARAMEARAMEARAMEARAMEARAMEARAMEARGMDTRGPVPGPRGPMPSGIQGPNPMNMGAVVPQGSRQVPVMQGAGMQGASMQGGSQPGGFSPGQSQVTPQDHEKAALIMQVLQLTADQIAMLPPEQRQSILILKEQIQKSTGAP
UniProt Q8BIF9: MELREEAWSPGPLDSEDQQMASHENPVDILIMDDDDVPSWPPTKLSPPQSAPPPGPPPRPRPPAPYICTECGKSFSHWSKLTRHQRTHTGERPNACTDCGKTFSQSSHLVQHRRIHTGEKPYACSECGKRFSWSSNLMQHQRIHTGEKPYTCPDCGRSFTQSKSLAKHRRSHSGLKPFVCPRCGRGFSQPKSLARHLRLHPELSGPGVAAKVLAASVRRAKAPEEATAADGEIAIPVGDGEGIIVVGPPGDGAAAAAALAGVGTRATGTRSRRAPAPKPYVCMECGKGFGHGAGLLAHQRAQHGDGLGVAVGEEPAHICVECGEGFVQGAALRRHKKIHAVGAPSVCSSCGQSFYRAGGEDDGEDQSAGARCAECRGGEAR
UniProt Q8BTS4: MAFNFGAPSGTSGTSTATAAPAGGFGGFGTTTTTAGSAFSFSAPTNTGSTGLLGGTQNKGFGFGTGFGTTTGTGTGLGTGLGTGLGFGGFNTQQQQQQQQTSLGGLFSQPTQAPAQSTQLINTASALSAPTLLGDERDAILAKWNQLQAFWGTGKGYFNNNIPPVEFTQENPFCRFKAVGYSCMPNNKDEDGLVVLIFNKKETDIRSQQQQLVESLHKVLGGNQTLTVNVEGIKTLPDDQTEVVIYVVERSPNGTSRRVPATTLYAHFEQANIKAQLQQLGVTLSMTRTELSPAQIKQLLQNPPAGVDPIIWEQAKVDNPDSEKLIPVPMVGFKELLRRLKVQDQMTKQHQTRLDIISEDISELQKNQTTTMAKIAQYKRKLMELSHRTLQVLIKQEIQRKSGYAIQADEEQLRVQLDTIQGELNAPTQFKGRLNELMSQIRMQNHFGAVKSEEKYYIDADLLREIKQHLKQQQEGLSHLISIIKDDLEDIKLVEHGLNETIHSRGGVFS
UniProt Q8BL80: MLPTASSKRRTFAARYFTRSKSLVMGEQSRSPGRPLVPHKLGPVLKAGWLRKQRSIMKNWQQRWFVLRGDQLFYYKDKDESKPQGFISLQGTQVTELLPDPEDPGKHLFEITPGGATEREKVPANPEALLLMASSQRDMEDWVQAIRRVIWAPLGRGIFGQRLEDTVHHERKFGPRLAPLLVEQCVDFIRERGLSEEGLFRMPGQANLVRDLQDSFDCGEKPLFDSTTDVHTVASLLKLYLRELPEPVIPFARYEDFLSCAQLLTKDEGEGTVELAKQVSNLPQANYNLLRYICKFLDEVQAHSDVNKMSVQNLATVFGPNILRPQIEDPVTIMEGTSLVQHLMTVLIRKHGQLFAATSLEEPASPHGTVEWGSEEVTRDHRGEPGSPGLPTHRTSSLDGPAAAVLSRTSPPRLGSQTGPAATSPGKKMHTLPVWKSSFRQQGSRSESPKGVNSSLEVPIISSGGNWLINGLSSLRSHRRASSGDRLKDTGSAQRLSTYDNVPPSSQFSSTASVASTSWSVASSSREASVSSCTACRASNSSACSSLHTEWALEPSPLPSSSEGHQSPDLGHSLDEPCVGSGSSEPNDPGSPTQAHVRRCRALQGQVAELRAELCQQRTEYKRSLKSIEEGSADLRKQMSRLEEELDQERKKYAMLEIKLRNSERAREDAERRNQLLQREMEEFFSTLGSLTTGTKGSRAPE
UniProt Q8BVF2: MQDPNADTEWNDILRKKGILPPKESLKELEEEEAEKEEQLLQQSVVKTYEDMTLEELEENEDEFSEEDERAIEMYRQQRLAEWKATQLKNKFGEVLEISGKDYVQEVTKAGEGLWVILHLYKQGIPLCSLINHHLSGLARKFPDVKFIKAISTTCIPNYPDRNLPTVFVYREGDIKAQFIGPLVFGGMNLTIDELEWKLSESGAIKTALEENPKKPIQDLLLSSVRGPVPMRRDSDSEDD
UniProt Q8BIE6: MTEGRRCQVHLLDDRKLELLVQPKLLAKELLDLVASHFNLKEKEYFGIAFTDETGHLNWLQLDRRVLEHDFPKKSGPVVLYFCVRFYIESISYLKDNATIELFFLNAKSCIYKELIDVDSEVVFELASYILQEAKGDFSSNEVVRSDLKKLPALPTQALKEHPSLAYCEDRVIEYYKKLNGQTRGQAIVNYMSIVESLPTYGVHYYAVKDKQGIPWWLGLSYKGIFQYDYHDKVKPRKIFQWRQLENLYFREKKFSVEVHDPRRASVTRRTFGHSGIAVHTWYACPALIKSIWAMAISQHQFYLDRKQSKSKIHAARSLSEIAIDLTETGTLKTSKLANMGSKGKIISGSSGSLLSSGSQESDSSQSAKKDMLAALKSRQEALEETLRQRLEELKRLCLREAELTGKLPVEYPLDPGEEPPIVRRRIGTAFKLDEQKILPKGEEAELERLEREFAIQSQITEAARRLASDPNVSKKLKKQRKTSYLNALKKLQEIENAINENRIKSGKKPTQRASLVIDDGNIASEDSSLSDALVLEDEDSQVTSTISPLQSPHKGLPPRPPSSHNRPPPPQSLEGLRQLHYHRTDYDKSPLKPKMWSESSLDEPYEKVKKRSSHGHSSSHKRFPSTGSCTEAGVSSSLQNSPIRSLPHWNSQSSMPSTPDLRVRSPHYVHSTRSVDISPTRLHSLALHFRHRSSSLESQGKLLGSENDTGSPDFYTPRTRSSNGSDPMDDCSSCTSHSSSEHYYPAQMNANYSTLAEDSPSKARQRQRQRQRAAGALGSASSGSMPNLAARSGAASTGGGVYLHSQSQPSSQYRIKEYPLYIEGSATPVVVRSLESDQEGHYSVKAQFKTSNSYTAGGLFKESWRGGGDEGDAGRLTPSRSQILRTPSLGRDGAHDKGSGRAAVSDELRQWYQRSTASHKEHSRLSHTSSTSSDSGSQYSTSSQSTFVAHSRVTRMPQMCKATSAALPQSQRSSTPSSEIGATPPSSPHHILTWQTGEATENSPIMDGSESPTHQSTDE

These targets were tested with CN[C@@H]1C[C@H]2O[C@@](C)([C@@H]1OC)n1c3ccccc3c3c4c(c5c6ccccc6n2c5c31)C(=O)NC4 [staurosporine] (assay: log2 fold change of tryptic peptide abundance, ligand vs vehicle (limited proteolysis) (log2 ratio); higher = more trypsin-susceptible (destabilized)). Details: ligand concentration: 20 uM; sample: mouse liver crude lysate; replicate design: treated separately.

Target | log2 fold change
UniProt Q8BJD1 (peptide sequence: TLFPNYFNGSEIVIAGK, peptide start residue: 501) | -0.0658
UniProt Q8BSY0 (peptide sequence: KVYEEVLNVTPNDGFAK, peptide start residue: 458) | -0.322
UniProt Q8BJW6 (peptide sequence: APSTPLLTVR, peptide start residue: 2) | -0.535
UniProt Q8BK06 (peptide sequence: DLQAQLQMFR, peptide start residue: 28) | 0.268
UniProt Q8BV66 (peptide sequence: GSITHQILVGCDEDGISDKYR, peptide start residue: 207) | 0.284
UniProt Q8BMA3 (peptide sequence: LRENPTGVVLLLK, peptide start residue: 278) | 0.34
UniProt Q8BKH7 (peptide sequence: INAAHGFSLIQVDNTK, peptide start residue: 283) | -0.153
UniProt Q8BV49 (peptide sequence: MQDQYDR, peptide start residue: 38) | 0.151
UniProt Q8BTZ5 (peptide sequence: IDICNHQGATPLVLAK, peptide start residue: 101) | -0.203
UniProt Q8BSV3 (peptide sequence: ETQPIYLGDESMEIKK, peptide start residue: 42) | 0.122
UniProt Q8BT60 (peptide sequence: VVLFEMEAR, peptide start residue: 140) | 0.107
UniProt Q8BSU7 (peptide sequence: KFEPGTQR, peptide start residue: 20) | -0.256
UniProt Q8BUM3 (peptide sequence: EVTLHFLR, peptide start residue: 69) | 0.476
UniProt Q8BUL5 (peptide sequence: AEDQVYDAAVR, peptide start residue: 203) | 0.304
UniProt Q8BRN9 (peptide sequence: RQDLEQAK, peptide start residue: 547) | -0.949
UniProt Q8BUH1 (peptide sequence: LIVQSPIDPK, peptide start residue: 128) | 0.0737
UniProt Q8BJQ2 (peptide sequence: ESQPLEENQR, peptide start residue: 289) | 0.448
UniProt Q8BIZ6 (peptide sequence: LSPEPVAHR, peptide start residue: 32) | -0.208

Target | log2 fold change
UniProt Q8BJ90 (peptide sequence: THTGERPYACADCGTR, peptide start residue: 196) | -0.179
UniProt Q8BL74 (peptide sequence: GLDQPESPHPK, peptide start residue: 157) | 0.0779
UniProt Q8BUR4 (peptide sequence: HQEIFDK, peptide start residue: 1706) | 0.364
UniProt Q8BMS1 (peptide sequence: GLYPAPLKIIDAVK, peptide start residue: 296) | 0.3
UniProt Q8BIQ5 (peptide sequence: GALPTNVPTPR, peptide start residue: 309) | 0.113
UniProt Q8BIF9 (peptide sequence: IHTGEKPYTCPDCGR, peptide start residue: 143) | 0.251
UniProt Q8BUL6 (peptide sequence: LSLQESQLPK, peptide start residue: 374) | -0.298
UniProt Q8BR63 (peptide sequence: GFENVELGVMGK, peptide start residue: 33) | -0.131
UniProt Q8BTS4 (peptide sequence: MQNHFGAVK, peptide start residue: 443) | -0.199
UniProt Q8BSS9 (peptide sequence: TGSLIEPTISR, peptide start residue: 536) | 0.423
UniProt Q8BM75 (peptide sequence: VSPMTMSGPK, peptide start residue: 957) | 0.224
UniProt Q8BL80 (peptide sequence: YAMLEIKLR, peptide start residue: 653) | -0.017
UniProt Q8BVA4 (peptide sequence: NSLSPATQR, peptide start residue: 547) | 0.237
UniProt Q8BVF2 (peptide sequence: DYVQEVTK, peptide start residue: 102) | -0.391
UniProt Q8BMI0 (peptide sequence: CSDEERPSTSR, peptide start residue: 797) | -0.379
UniProt Q8BQM4 (peptide sequence: FIAYQETVEKR, peptide start residue: 666) | -0.167
UniProt Q8BIE6 (peptide sequence: TDYDKSPLKPK, peptide start residue: 585) | -0.174
UniProt Q8BQR4 (peptide sequence: YGVEALLHR, peptide start residue: 268) | 0.257

An excerpt of these results, with tabs.
Target	log2 fold change
UniProt Q8BUL6 (peptide sequence: LSLQESQLPK, peptide start residue: 374)	-0.298
UniProt Q8BR63 (peptide sequence: GFENVELGVMGK, peptide start residue: 33)	-0.131
